Source: publication PMC12284271, “Coupling chromosome organization to genome segregation in Archaea”
Construct, isoform or probe ends are uncertain for at least one entry. Protein sequences can lack the tags named with them.

Target: T1, SegB (SegBSa) (Sulfolobus acidocaldarius) (UniProt Q4JC57)
T1 sequence (looked up, limits assumed): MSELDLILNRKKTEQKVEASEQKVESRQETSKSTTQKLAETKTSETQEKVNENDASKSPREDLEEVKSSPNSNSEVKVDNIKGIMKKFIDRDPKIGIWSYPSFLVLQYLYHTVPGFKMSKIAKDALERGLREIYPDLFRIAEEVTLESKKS
Assay: DNase I footprinting
Conditions: large window, three additional sites; DNA 1-5 nM, SegB 0-1000 nM; recombinant protein; label: biotin

GTATTTTTATTTTTGGATAAAGTGTAAGAGAGATTTACGGAGGTTGTAGTTTTCCCTACACCTCCTTTCTGATTGATGACAGTGATTATCATATATAGACTCTTAACTCTATACCCTTTATTTCAGATTCTTCTCATAATACACCGTAGTCTGGAGTGAAAAATCTAAAGTAAATCCACTAGGTGAATAGGTTTTAAACC (double strand) [peak 15 region, 200 bp]
binding result: binds
